For at least one entry, the source does not settle the construct or the ends of the probe.
Tests used:
Test in all cases: enzyme reaction in vitro
MlyI = conditions: Type IIs double-strand cleavage; pNB1 and pUC19; purified recombinant protein; only the motif is given
N.BstNBI = conditions: purified recombinant protein, only the motif is given
AlwI = conditions: cuts both strands, linearizes pAC1; purified recombinant protein; only the motif is given

GAGTC (double strand) [MlyI/N.BstNBI site in pNB1 / pUC19]
activity on this sequence (MlyI): active
activity on this sequence (N.BstNBI; nicking of pNB1): active

GGATC (double strand) [pAC1 (single AlwI site)]
activity on this sequence (AlwI): active
activity on this sequence (N.BstNBI; relaxed form produced, acts at its own GAGTC sites rather than GGATC): active
